Test results reported in the supplement of paper PMC10338343.
± gives the standard deviation. The list shows a part of the results. The uncertainty is large for many entries.

Tested on: EfPiwi piRISC loaded with L1MC piRNA (26 nt)
Assay: pre-steady-state target cleavage rate (min^-1); guide: L1MC piRNA 5'p-UAACUAAAUACUAUGCAAGCUGUAGG; MIWI and MILI are mouse PIWI proteins and EfPiwi is from a freshwater sponge; tags in brackets are library labels; higher = faster piRNA-guided slicing of the target
Details: auxiliary factor: 500 nM Ephydatia muelleri Gtsf1
Procedure, shortened: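 At 33 °C in HEPES–potassium acetate buffer, a transcribed, DNA-blocked target RNA library […] was exposed for 0–8 or 0–960 min to 1 nM active affinity-purified piRISC carrying a single synthetic guide, with or without 500 nM GTSF1 partner protein. Uncleaved targets were sequenced and normalised to depth and to weakly complementary targets. With three trials pooled and k3 capped at 0.0001 min^-1, a burst-and-steady-state fit produced the pre-steady-state cleavage rate.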

Sequence | pre-steady-state target cleavage rate
UCCUGGAUCAGCUUGCAUAGUAUUUAAUUA | 0.00916 ± 0.0034
UCCUGGUUCAGCUUGCAUAGUAUUUUCAAA | 0.00275 ± 0.0031
UCCUGGAUCAGCUUGCAUUGUAUUUAGAUA | 0.00276 ± 0.0021
UCCUGGAGCAGCUUGCAUAGUAUUUAGUUA | 0.101 ± 0.024
UCCUGCUACUGCUUGCAUAGUAUAUAGUUA | 0.00619 ± 0.0031
UCCUGGAUCAGCUUGCAUAGAAUUUACUUA | 0.000409 ± 0.013
UCCUCCUACAGCUUGCAUAGUUUAUAGUUA | 0.00613 ± 0.0033
UCCUCCUUCAGCUUGCAUAGUAUUUAGAAA | 0.00603 ± 0.0031
UCCUCCUUCAGCUUGCAUAGUAUUUACUUA | 0.00514 ± 0.0032
UCCUGGAACAGCUUGCAUAGUAUUUAGUA | 0.00384 ± 0.0024
UCCUCCUUCAGCUUGCAUAGUAUUUACAAA | 0.00379 ± 0.0027
UCCUCGUACAGCUUGCAUAGUAUUUACUUA | 0.00206 ± 0.0043
UCCUGGAUCAGCUUGCAUAGUAAAAUCAAA | 0.00118 ± 0.0041
UCCUCCUACAGCUCGCAUAGUAUUUAGUUA | 0.0845 ± 0.019
UCCUGCUACAGCUUGCAUAGUAUUAUGUUA | 0.00406 ± 0.002
UCCUGGAUGUGCUUGCAUACUAUUUUGUUA | 0.00118 ± 0.0028
UCCUGGAACAGCAAGCAUAGUAUUUAGUAA | 0.00167 ± 0.0035
UCCUGGUACAGGUUGCAUAGUAUUUAGUAA | 0.00428 ± 0.0022
UCCUGGUACAGCUUGCAUUGUAUUAAGUUA | 0.00275 ± 0.0033
UCCUGGAUGUCGAACCAUAGUAUAUUAGUUA | 0.000293 ± 0.023
UCCUCCUACAGCUUGCAUACUAUUUAGUAA | 0.00454 ± 0.0033
UCCUGGAUCGCUUGCAUAGUAUUUAGUUA | 0.065 ± 0.011
UCCUGGAUGUCGAACGAUAUGUAUUUAGUUA | 0.000118 ± 0.019
UCCUGGAUCAGCUUGGAUACUAUUUAGUUA | 0.00164 ± 0.0026

Reprinted at random: two records from the list.
Sequence | pre-steady-state target cleavage rate
UCCUCGUACAGCUUGCAUAGUAUUUACUUA | 0.00206 ± 0.0043
UCCUGGAUCGCUUGCAUAGUAUUUAGUUA | 0.065 ± 0.011
